Results on one molecule are retold here after patent US20050124794A1 (published 2005).

Assay [1] has as its target T1, Rabbit histidine-proline rich glycoprotein (HPRG) (rabbit, UniProt Q28640 9-526, biotinylated in FIG. 15A).
T1 construct: also called rabbit HPRG; biotinylated HPRG
T1 sequence: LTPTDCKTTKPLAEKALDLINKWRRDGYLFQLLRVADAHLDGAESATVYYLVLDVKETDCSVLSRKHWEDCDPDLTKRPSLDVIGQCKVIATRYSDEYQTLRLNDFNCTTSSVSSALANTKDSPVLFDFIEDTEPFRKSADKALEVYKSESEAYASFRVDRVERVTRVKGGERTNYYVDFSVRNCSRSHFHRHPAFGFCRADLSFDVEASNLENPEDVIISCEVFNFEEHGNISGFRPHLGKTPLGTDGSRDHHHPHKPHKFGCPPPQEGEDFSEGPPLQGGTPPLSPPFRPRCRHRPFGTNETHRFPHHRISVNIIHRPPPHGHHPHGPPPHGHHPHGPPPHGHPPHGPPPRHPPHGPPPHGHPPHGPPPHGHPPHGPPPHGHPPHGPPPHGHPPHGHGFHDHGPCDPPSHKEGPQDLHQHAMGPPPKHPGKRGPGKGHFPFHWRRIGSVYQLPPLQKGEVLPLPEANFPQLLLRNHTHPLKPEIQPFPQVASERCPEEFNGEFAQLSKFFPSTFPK
Nature of the assay: biotinylated HPRG on plate coated with chicken gizzard Tpm (FIG. 15A); whole rabbit HPRG. The procedure:
(§1) FIG. 15A: increasing amounts of a biotinylated HPRG, HKa or HKa-D5 were added to a 96 well Tpm-coated plate. FIG. 15B: 10 nM biotin-HKa was added to a 96 well Tpm-coated plate. Increasing amounts of HPRG-H/P domain or HPRG-N/C fragment were added to the wells.
(§2) Binding to immobilized Tpm is carried out either by a competition assay with a known ligand, biotin-HKa, or by direct binding of the corresponding biotinylated protein. Plates are coated at room temperature with chicken gizzard Tpm (Sigma) in Tris buffer-saline (TBS) (200 ng/well). After incubation for 2 hours, wells are washed with TBS, then 1% BSA/TBS/Tween-20 is added to each well and incubate at 37° C. for two hours. HKa (Enzyme Laboratories) that had been previously biotinylated with EZ-Link (Pierce) according to the manufacturers instructions, is added to the plate at a concentration of 10 nM together with ZnCl₂ (10 μM) and the appropriate concentration of the protein, domain or peptide competitor. The plates are incubated at room temperature and then washed with TBS/Tween-20. Avidin-HRP is added, incubated for 20 minutes at room temperature, washed with TBS/Tween-20 and the chromogenic substrate is added. The reaction is stopped with sulfuric acid and the plate read at 490 nm.

The target in assay [2] is T2, Two-chain high molecular weight kininogen (HKa) (human, UniProt P01042 19-380; P01042 390-644, biotin-labelled (NHS (sulfo)-LC-biotin / EZ-Link) in the binding and competition assays).
T2 construct: Bought from Enzyme Research Laboratories; The cleavage that makes the two-chain form is not described; also called two chain human kininogen; biotin-HKa
T2 sequence 1: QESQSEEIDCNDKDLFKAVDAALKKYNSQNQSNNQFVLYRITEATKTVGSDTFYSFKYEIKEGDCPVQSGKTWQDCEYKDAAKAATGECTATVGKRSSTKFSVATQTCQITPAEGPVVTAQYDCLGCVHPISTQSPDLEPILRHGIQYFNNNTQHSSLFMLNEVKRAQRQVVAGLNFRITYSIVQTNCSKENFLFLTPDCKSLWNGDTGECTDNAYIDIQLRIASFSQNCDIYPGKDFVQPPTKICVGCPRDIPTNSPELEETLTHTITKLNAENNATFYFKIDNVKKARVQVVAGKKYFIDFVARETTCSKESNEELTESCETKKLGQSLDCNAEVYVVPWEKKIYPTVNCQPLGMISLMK
T2 sequence 2: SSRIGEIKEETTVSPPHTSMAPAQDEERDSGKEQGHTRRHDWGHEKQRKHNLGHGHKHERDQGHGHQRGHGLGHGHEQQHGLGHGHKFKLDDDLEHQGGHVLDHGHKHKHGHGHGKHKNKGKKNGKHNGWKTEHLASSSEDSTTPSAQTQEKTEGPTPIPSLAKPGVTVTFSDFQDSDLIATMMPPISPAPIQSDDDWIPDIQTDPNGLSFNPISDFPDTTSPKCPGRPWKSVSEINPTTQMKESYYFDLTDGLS
Nature of the assay: plate binding assay on immobilized chicken gizzard Tpm (FIG. 15); FIG. 15 plate assay, later example. The procedure: as §1, §2
(§3) This value is identical to that obtain in vivo with HUVECs.

Assay [3] concerns the target T3, Recombinant HKa domain 5 (HKa D5) (human, UniProt P01042 402-526).
T3 construct: also called HK-D5; D5 domain of HKa
T3 sequence: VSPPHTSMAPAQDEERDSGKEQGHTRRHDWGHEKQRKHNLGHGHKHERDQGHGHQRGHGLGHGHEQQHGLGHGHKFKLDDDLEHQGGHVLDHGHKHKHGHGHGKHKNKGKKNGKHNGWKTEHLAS
The assay is described as above. As for the experimental part:
as §1, §2, §3

The target in assay [4] is T4, Histidine-Proline rich (H/P) domain of HPRG (rabbit, UniProt Q28640 321-421, limits assumed).
T4 construct: also called HPRG-H/P; HPRG-H/P domain
T4 sequence: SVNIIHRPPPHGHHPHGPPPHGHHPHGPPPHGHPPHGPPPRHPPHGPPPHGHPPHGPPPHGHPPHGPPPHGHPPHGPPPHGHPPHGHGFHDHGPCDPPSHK
Description: competition with 10 nM biotin-HKa on plate coated with chicken gizzard Tpm (FIG. 15B); H/P domain alone. The procedure: as §1, §2

In assay [5] the target is T2, Two-chain high molecular weight …. Nature of the assay: biotin-HKa on chicken gizzard Tpm immobilized in 96-well microplates, Zn2+-dependent; nonlinear regression; Example II. As for the experimental part:
(§4) To measure the binding of HKa to purified Tpm, 96 well microplates were coated with 20 μg/ml of chicken gizzard Tpm (Sigma), or bovine serum albumin (BSA), as a control. Wells were then blocked by incubation with phosphate buffered saline containing 5% nonfat milk, and incubated with increasing concentrations of HKa (0.01-20 nM) for 2 hours. Specifically-bound HKa was quantitated as described for cell binding assays (van Iwaarden et al., supra, and by assessing the ability of a 100-fold molar excess of unlabeled HKa to compete with biotin-HKa for binding.

For assay [6] the target is unchanged. Nature of the assay: biotin-HKa on chicken gizzard Tpm immobilized to polystyrene, with and without 10 µM Zn2+ (legend of FIG. 7A); legend of FIG. 7A. The procedure: (§5) FIGS. 7A-7C show specific binding of HKa to purified immobilized Tpm and its inhibition. […] Plates were incubated with increasing concentrations of biotin-HKa in the absence or presence of 10 μM Zn²⁺. […] The IC₅₀ for this inhibition was about 8.1 nM.
as §4

The target in assay [7] is T3, Recombinant HKa domain 5 (HKa D5). Description: competition ELISA against 10 nM biotin-HKa on immobilized chicken gizzard Tpm, 10 uM ZnCl2; Kd by non-linear regression. A general note: ELISA stands for enzyme-linked immunosorbent assay.
Assay [8] shares this target. Description: calculated from the IC50 of HKa D5 against biotin-HKa on immobilized Tpm: Kd(D5)=IC50/(1+[HKa]/Kd(HKa)); estimated from blocking of HKa binding. As for the experimental part: as §5

B1: Chicken gizzard tropomyosin (Tpm), purified (other)
chain: MEAIKKKMQMLKLDKENAIDRAEQAEADKKQAEDRCKQLEEEQQGLQKKLKGTEDEVEKYSESVKEAQEKLEQAEKKATDAEAEVASLNRRIQLVEEELDRAQERLATALQKLEEAEKAADESERGMKVIENRAMKDEEKMELQEMQLKEAKHIAEEADRKYEEVARKLVVLEGELERSEERAEVAESRVRQLEEELRTMDQSLKSLIASEEEYSTKEDKYEEEIKLLGEKLKEAETRAEFAERSVAKLEKTIDDLEESLASAKEENVGIHQVLDQTLLELNNL
notes: Bought from Sigma and coated on 96-well plates; also called purified Tpm; immobilized Tpm
Usually Kd stands for the free concentration of one partner at which half of the binding sites on the other are occupied at equilibrium, for simple one-to-one binding. In the case of B1, the Kd in assay [1] is about 2 nM; in assay [2], about 1 nM; in assay [3] it was about 1 nM; in assay [4], about 2 nM; in assay [5], about 2.6 nM; in assay [6], about 2.5 nM. For the same molecule, the Kd is 1 nM in assay [7] and about 2.1 nM in assay [8].
